# Test results published in publication PMC7606486, “CFAP45 deficiency causes situs abnormalities and asthenospermia by disrupting an axonemal adenine nucleotide homeostasis module” (Nature Communications, 2020).
# These are yes or no findings as the source states them, for the method shown. For part of these data: In cells and extracts the contact can be indirect. Some results given as binding are weak or reduced against the parent protein; the word gives no strength. For part of these data: Tags and fused reporters may be left off the sequences shown.
# How the values were obtained:
# [1] = biological target: myc-tagged CFAP45 (human) (UniProt Q9UL16); assay: co-IP; HEK293 cells cotransfected with myc-DNALI1 and FLAG-CFAP45 or myc-CFAP45 and FLAG-DNALI1; IP with rabbit polyclonal anti-CFAP45 or anti-DNALI1 overnight at 4 °C; IB with monoclonal anti-myc and anti-FLAG
# [2] = biological target: CFAP45 full-length (551 amino acid) GAL4-BD bait (human) (UniProt Q9UL16); assay: two-hybrid; GAL4-based yeast two-hybrid, strain PJ69-4A; CFAP45 as GAL4-BD bait, preys fused to GAL4-AD; growth on selective media (LWH + 3-AT)
# [3] = biological target: recombinant full-length (p66) CFAP45 (human) (UniProt Q9UL16); assay: co-IP; recombinant, epitope-tagged proteins co-expressed in HEK293 cells; immunoprecipitation of the bait; details only in supplementary figures
binder,measurement,setting,value
"FLAG-tagged DNALI1 (protein, UniProt O14645 1-258) MIPPADSLLKYDTPVLVSRNTEKRSPKARLLKVSPQQPGPSGSAPQPPKTKLPSTPCVPDPTKQAEEILNAILPPREWVEDTQLWIQQVSSTPSTRMDVVHLQEQLDLKLQQRQARETGICPVRRELYSQCFDELIREVTINCAERGLLLLRVRDEIRMTIAAYQTLYESSVAFGMRKALQAEQGKSDMERKIAELETEKRDLERQVNEQKAKCEATEKRESERRQVEEKKHNEEIQFLKRTNQQLKAQLEGIIAPKK",binding,[1],binds
"DNALI1 GAL4-AD prey (protein, UniProt O14645 1-258) MIPPADSLLKYDTPVLVSRNTEKRSPKARLLKVSPQQPGPSGSAPQPPKTKLPSTPCVPDPTKQAEEILNAILPPREWVEDTQLWIQQVSSTPSTRMDVVHLQEQLDLKLQQRQARETGICPVRRELYSQCFDELIREVTINCAERGLLLLRVRDEIRMTIAAYQTLYESSVAFGMRKALQAEQGKSDMERKIAELETEKRDLERQVNEQKAKCEATEKRESERRQVEEKKHNEEIQFLKRTNQQLKAQLEGIIAPKK",binding,[2],binds
"recombinant AK8 (enzyme, UniProt Q96MA6-1 1-479) MDATIAPHRIPPEMPQYGEENHIFELMQNMLEQLLIHQPEDPIPFMIQHLHRDNDNVPRIVILGPPASGKTTIAMWLCKHLNSSLLTLENLILNEFSYTATEARRLYLQRKTVPSALLVQLIQERLAEEDCIKQGWILDGIPETREQALRIQTLGITPRHVIVLSAPDTVLIERNLGKRIDPQTGEIYHTTFDWPPESEIQNRLMVPEDISELETAQKLLEYHRNIVRVIPSYPKILKVISADQPCVDVFYQALTYVQSNHRTNAPFTPRVLLLGPVGSGKSLQAALLAQKYRLVNVCCGQLLKEAVADRTTFGELIQPFFEKEMAVPDSLLMKVLSQRLDQQDCIQKGWVLHGVPRDLDQAHLLNRLGYNPNRVFFLNVPFDSIMERLTLRRIDPVTGERYHLMYKPPPTMEIQARLLQNPKDAEEQVKLKMDLFYRNSADLEQLYGSAITLNGDQDPYTVFEYIESGIINPLPKKIP",binding,[3],binds
